Key:
SUP-B15 = test: CTG viability assay (CellTiter-Glo, 72 h); type: cell-based, human; conditions: therapeutic index, EC50 PBMC / EC50 SUP-B15
Method: All human cell lines were incubated at 37 °C in a 5% CO2 atmosphere and maintained under sterile conditions. Cells were tested for Mycoplasma (Lonza, Alpharetta, GA, USA) using the manufacturer’s conditions prior to experiments. Cell lines were purchased from American Type Culture Collection (ATCC, Manassas, VA, USA) or Leibniz-Institute Deutsche Sammlung von Mikroorganismen und Zellkulturen GmbH (DSMZ, Braunschweig, Germany) and cultured without antibiotics unless stated. Leukemia cells were cultured in RPMI and supplemented with 10% fetal bovine serum (FBS, Hyclone, Logan, UT, USA). SUP-B15, and KOPN-8 lines were cultured in RPMI supplemented with 10% FBS (Hyclone), 1% GlutaMAX™, 1% Pen/Step, and 0.1% β-mercaptoethanol. BJ cells were cultured in EMEM media supplemented with 10% FBS (Hyclone). Breast cancer cells (MDA-MB-231 & SUM149) were cultured in DMEM and Ham’s F12 respectively, supplemented with 10% FBS, 1% GlutaMAX™, 1% Pen/Step, and 2 µM cortisol/1 µg/mL insulin for SUM149. Both cells were grown to 80% confluence densities as recommended by ATCC. PBMCs were supplemented with concanavalin-A (5 μg/mL) and IL-2 (50 U/ml). To test general cytotoxicity, the following cell numbers were used for 384 well plates: KOPN-8 (ACC 552, infant human B cell precursor acute lymphoblastic leukemia with MLL-MLLt1/ENL fusion, 1000 cells/well), SUP-B15 (ACC389, human B cell precursor acute lymphoblastic leukemia of pediatric second relapse carrying the ALL-variant (m-bcr) of BCR-ABL1 fusion gene (e1-a2), 1600 cells/well), NALM-06 (DSMZ ACC128, non-T/non-B ALL at relapse with P15INK4B and P16INK4A deletions, 1200 cells/well), UoC-B1 (pediatric BCP-ALL at second relapse with TCF3/E2A-HFL fusion, 1000 cells/well), BJ (CRL-2522, normal human foreskin fibroblast cells, 400 cells/well) and PBMCs (periphery blood monocyte cells from healthy donors, IBC#BDC046, 10,000 cells/well).
Cytotoxicity evaluation was performed using the CellTiter-Glo Luminescent Cell Viability Assay kit (G7570, Promega, Madison, WI, USA), according to the manufacturer’s instructions. Briefly, the cell concentrations used were experimentally determined to ensure logarithmic growth during the 72-h duration of the experiment, and avoid adverse effects on cell growth by DMSO exposure. 1 × 10^3–4.8 × 10^3 or 4 × 10^2–1.2 × 10^3 cells/well were seeded in 96 or 384-well white flat-bottomed plates (3610 or 8804BC, Corning, Corning, NY, USA) in 100 µL or 30 µL/well, respectively. The plates were incubated at 37 °C in 5% CO2 for 24 h before drugging. Test compounds (10 mM in DMSO) in nine 3-fold serial dilutions were dispensed via pintool (Biomek liquid handler, Beckman, Indianapolis, USA) to assay plates. The final concentration of DMSO was 0.3% (v/v) in each well. The positive controls included staurosporine (10 μM), and gambogic acid (10 μM). The plates were incubated for 72 h at 37 °C in 5% CO2, then quenched with CellTiter-Glo® (Promega, Madison, WI, USA, 50 µL/96 or 30 µL/384), centrifuged at 1000 rpm for 1 min and incubated at RT for 20 min. Luminescence was recorded with a plate reader (Envision, Perkin Elmer, Waltham, MA, USA). The mean luminescence of each experimental treatment group was normalized as a percentage of the mean intensity of untreated controls. EC50 values were calculated by Pipeline Pilot software (Accelrys, Enterprise Platform, San Diego, CA, USA).

MDA-MB-231 = test: Co-localization of probe with organelle trackers, live cell imaging; type: cell-based, human; conditions: live MDA-MB-231 cells, 1 µM
From the text: It is important to determine the intracellular accumulation of compound 9 as this may aid in identifying its intracellular interactions. To facilitate these experiments, a series of orthogonal fluorescent organelle markers were used for co-localization studies. The organelle marker set included indicators for the lysosome (Lysotracker Red), the mitochondria (MitoTracker Deep Red), and the endoplasmic reticulum (ER tracker Blue/White). Where applicable, nuclei were stained with Hoechst (Blue). All these markers were compatible with BODIPY-FL (green) to allow for flexible combinations. […] First, to evaluate the accumulation of compound 9a after 30 min treatment at 1 µM, washout experiments were conducted as shown in Figure 7A in the presence of Hoechst nuclear stain. Distinct green specks were observed near the nucleus of the cell.
Co-localization studies were conducted in 8-well chambered coverslips (ibidi GmbH µ-slide # 80826) for MDA-MB-231. Coverslips were first coated with 0.1% Gelatin for 30 min for better cell adherence. Cells were then plated in phenol red free medium at a density of 4 × 10^4 cells per well and incubated at 37 °C overnight. […]

Row | SMILES | TI (PBMC/SUP-B15) (SUP-B15) | co-localization with lysosomes (Lysotracker Red) (MDA-MB-231) | co-localization with mitochondria (MitoTracker Deep Red) (MDA-MB-231)
1 | COC1=C[C@]23CCCN2CCc2cc4c(cc2[C@@H]3[C@@H]1O)OCO4 [Compound 9, cephalotaxine] | >7.7 | – | –
2 | C/C=C1\C(=O)C[C@@]2(O)[C@@H]3CCC4=CC(=O)CC[C@]4(C)[C@H]3CC[C@]12C [Compound 14] | >2.5 | – | –
3 | CC(C)CC[C@@H](O)[C@](C)(O)[C@H]1CC[C@@]2(O)C3=CC(=O)[C@]4(O)C[C@@H](O)[C@@H](O)C[C@]4(C)[C@H]3[C@H](O)C[C@]12C [Compound 13, muristerone A] | >4.5 | – | –
4 | C[C@H]([C@H](O)CCC(C)(C)O)[C@H]1CC[C@@]2(O)C3=CC(=O)[C@@H]4C[C@@H](O)[C@@H](O)C[C@]4(C)[C@H]3CC[C@]12C [Compound 12, ecdysone] | >2.15 | – | –
5 | COc1ccc(CC2c3cc(O)c(OC)cc3CCN2C)cc1O (stereo not drawn) [Compound 4] | >2.25 | – | –
6 | CC(C)(O)CC[C@@H](O)[C@](C)(O)[C@H]1CC[C@@]2(O)C3=CC(=O)[C@@H]4C[C@@H](O)[C@@H](O)C[C@]4(C)[C@H]3CC[C@]12C [Compound 11] | >1.48 | – | –
7 | COC(=O)C[C@](O)(CCCC(C)(C)O)C(=O)O[C@@H]1C(OC)=C[C@]23CCCN2CCc2cc4c(cc2[C@H]13)OCO4 [Compound 10, homoharringtonine, reference compound] | 140 | – | –
8 | COc1ccc2c(c[n+](C)c3c4cc5c(cc4ccc23)OCO5)c1OC [Compound 8, chelerythrine] | 2.8 | – | –
9 | CCC1CN2CCc3cc(OC)c(OC)cc3C2CC1CC1NCCc2cc(O)c(OC)cc21 (stereo not drawn) [Compound 6] | >4.3 | – | –
10 | COc1cc2c(cc1O)[C@H]1Cc3ccc(OC)c(O)c3CN1CC2 [Compound 5] | >1.48 | – | –
11 | COC1=CC23CCCN2CCc2cc4c(cc2C3C1OC(=O)CCC1=[N+]2C(=Cc3c(C)cc(C)n3[B-]2(F)F)C=C1)OCO4 (stereo not drawn) [9a] | – | co-localizes with lysosomes | no co-localization was detected
